For this test, the target named is Spinster Homolog 2 (SPNS2), full-length human, tag-cleaved, detergent-solubilised (human) (UniProt Q8IVW8). Description: SEC; Superdex 200 10/300 GL; 150 mM NaCl, 20 mM HEPES pH 7.5, 0.025% DDM or 0.002% LMNG; both purified.

Results are given in words; binding and its absence hold for the method and conditions named. Where a sequence is shown, tags or fusion partners need not be part of it.

B1: Spinster Homolog 2 (SPNS2), full-length human, tag-cleaved, detergent-solubilised (protein, UniProt Q8IVW8 1-549)
chain: MMCLECASAAAGGAEEEEADAERRRRRRGAQRGAGGSGCCGARGAGGAGVSAAGDEVQTLSGSVRRAPTGPPGTPGTPGCAATAKGPGAQQPKPASLGRGRGAAAAILSLGNVLNYLDRYTVAGVLLDIQQHFGVKDRGAGLLQSVFICSFMVAAPIFGYLGDRFNRKVILSCGIFFWSAVTFSSSFIPQQYFWLLVLSRGLVGIGEASYSTIAPTIIGDLFTKNTRTLMLSVFYFAIPLGSGLGYITGSSVKQAAGDWHWALRVSPVLGMITGTLILILVPATKRGHADQLGDQLKARTSWLRDMKALIRNRSYVFSSLATSAVSFATGALGMWIPLYLHRAQVVQKTAETCNSPPCGAKDSLIFGAITCFTGFLGVVTGAGATRWCRLKTQRADPLVCAVGMLGSAIFICLIFVAAKSSIVGAYICIFVGETLLFSNWAITADILMYVVIPTRRATAVALQSFTSHLLGDAGSPYLIGFISDLIRQSTKDSPLWEFLSLGYALMLCPFVVVLGGMFFLATALFFVSDRARAEQQVNQLAMPPASVKV
With B1, the binding result is recorded as “no binding”.

The values are drawn from PMC11739509, “Transport and inhibition of the sphingosine-1-phosphate exporter SPNS2” (Nature Communications, 2025).
